Patent US11512054B2, “Pesticidal compounds” (BASF SE, priority 2017, dated 2022)
Some results were stated once for a whole list of compounds, not compound by compound.

Key:
Format in all cases: in vivo
[1] = tested on: yellow fever mosquito (Aedes aegypti); settings: 800 ppm; larval mortality visually assessed after 2 days
Description: For evaluating control of yellow fever mosquito (Aedes aegypti) the test unit consisted of 96-well-microtiter plates containing 200 μl of tap water per well and 5-15 freshly hatched A. aegypti larvae.
The active compounds or mixtures were formulated using a solution containing 75% (v/v) water and 25% (v/v) DMSO. Different concentrations of formulated compounds or mixtures were sprayed onto the insect diet at 2.5 μl, using a custom built micro atomizer, at two replications. For experimental mixtures in these tests identical volumes of both mixing partners at the desired concentrations respectively, were mixed together.
After application, microtiter plates were incubated at 28±1° C., 80±5% RH for 2 days. Larval mortality was then visually assessed.

[2] = tested on: boll weevil (Anthonomus grandis); assay: Action on boll weevil, eggs on insect diet in 96-well microtiter plates; settings: 800 ppm; egg and larval mortality after 5 days
Description: For evaluating control of boll weevil (Anthonomus grandis) the test unit consisted of 96-well-microtiter plates containing an insect diet and 5-10 A. grandis eggs.
The compounds were formulated using a solution containing 75% (v/v) water and 25% (v/v) DMSO. Different concentrations of formulated compounds were sprayed onto the insect diet at 5 μl, using a custom built micro atomizer, at two replications.
After application, microtiter plates were incubated at about 25+1° C. and about 75+5% relative humidity for 5 days. Egg and larval mortality was then visually assessed.

[3] = tested on: tobacco budworm (Heliothis virescens); assay: Action on tobacco budworm, eggs on insect diet in 96-well microtiter plates; settings: 800 ppm; egg and larval mortality after 5 days
Description: For evaluating control of tobacco budworm (Heliothis virescens) the test unit consisted of 96-well-microtiter plates containing an insect diet and 15-25 H. virescens eggs.
The compounds were formulated using a solution containing 75% v/v water and 25% v/v DMSO. Different concentrations of formulated compounds were sprayed onto the insect diet at 10 μl, using a custom built micro atomizer, at two replications.
After application, microtiter plates were incubated at about 28+1° C. and about 80+5% relative humidity for 5 days. Egg and larval mortality was then visually assessed.

[4] = tested on: Diamond Back Moth (Plutella xylostella); assay: Action on diamond back moth, cabbage leaf dip; settings: 500 ppm; 3rd instar larvae; 72 hours after treatment
Description: The active compound is dissolved at the desired concentration in a mixture of 1:1 (v/v) distilled water:acetone. Surfactant (Kinetic® HV) is added at a rate of 0.01% (v/v). The test solution is prepared at the day of use.
Leaves of cabbage were dipped in test solution and air-dried. Treated leaves were placed in petri dishes lined with moist filter paper and inoculated with ten 3rd instar larvae. Mortality was recorded 72 hours after treatment. Feeding damages were also recorded using a scale of 0-100%.

[5] = tested on: Southern Armyworm (Spodoptera eridania), 2nd Instar Larvae; assay: Action on southern armyworm, sprayed lima bean plants; settings: 300 ppm; 2nd instar larvae on lima bean; 4 days after treatment
Description: The active compounds were formulated by a Tecan liquid handler in 100% cyclohexanone as a 10,000 ppm solution supplied in tubes. The 10,000 ppm solution was serially diluted in 100% cyclohexanone to make interim solutions. These served as stock solutions for which final dilutions were made by the Tecan in 50% acetone:50% water (v/v) into 10 or 20 ml glass vials. A nonionic surfactant (Kinetic®) was included in the solution at a volume of 0.01% (v/v). The vials were then inserted into an automated electrostatic sprayer equipped with an atomizing nozzle for application to plants/insects.
Lima bean plants (variety Sieva) were grown 2 plants to a pot and selected for treatment at the 1st true leaf stage. Test solutions were sprayed onto the foliage by an automated electrostatic plant sprayer equipped with an atomizing spray nozzle. The plants were dried in the sprayer fume hood and then removed from the sprayer. Each pot was placed into perforated plastic bags with a zip closure. About 10 to 11 armyworm larvae were placed into the bag and the bags zipped closed. Test plants were maintained in a growth room at about 25° C. and about 20-40% relative humidity for 4 days, avoiding direct exposure to fluorescent light (24 hour photoperiod) to prevent trapping of heat inside the bags. Mortality and reduced feeding were assessed 4 days after treatment, compared to untreated control plants.

[6] = tested on: Orchid Thrips (Dichromothrips corbetti); assay: Action on orchid thrips, floral-immersion technique; settings: 500 ppm; adult thrips; 72 hours after treatment
Description: Dichromothrips corbetti adults used for bioassay were obtained from a colony maintained continuously under laboratory conditions. For testing purposes, the test compound is diluted in a 1:1 mixture of acetone:water (vol:vol), plus Kinetic® HV at a rate of 0.01% v/v.
Thrips potency of each compound was evaluated by using a floral-immersion technique. All petals of individual, intact orchid flowers were dipped into treatment solution and allowed to dry in Petri dishes. Treated petals were placed into individual re-sealable plastic along with about 20 adult thrips. All test arenas were held under continuous light and a temperature of about 28° C. for duration of the assay. After 3 days, the numbers of live thrips were counted on each petal. The percent mortality was recorded 72 hours after treatment.

Row | Compound | mortality in comparison with untreated controls [1] | mortality in comparison with untreated controls [2] | mortality in comparison with untreated controls [3] | mortality in comparison with untreated controls [4] | mortality in comparison with untreated controls [5] | mortality in comparison with untreated controls [6]
1 | CC(C)c1ccccc1N1C(=O)CSC1=NN=Cc1ccc2c(C(=NO)N(C)c3ccc(OC(F)(F)F)cc3)nn(C)c2c1 [Example C-14] | at least 50% | at least 75% | at least 75% | at least 75% | at least 75% | 
2 | CC(C)c1ccccc1N1C(=O)CSC1=NN=Cc1ccc2c(C(=NO)Nc3ccc(OC(F)(F)F)cc3)nn(C)c2c1 [Example C-8] | at least 50% | at least 75% | at least 75% | at least 75% | at least 75% | 
3 | COC1C(C)OC(OC(=O)Nc2ccc3c(C(=N)Nc4ccc(OC(F)(F)F)cc4)nn(C)c3c2)C(OC)C1OC (centres unmarked) [Example C-9] | at least 50% | at least 75% |  |  |  | 
4 | Cc1cccc(C)c1NC(=S)NN=Cc1ccc2c(C(=N)Nc3ccc(OC(F)(F)F)cc3)nn(C)c2c1 [Example C-45] | at least 50% | at least 75% | at least 75% | at least 75% | at least 75% | 
5 | CNC(=Nc1ccc(OC(F)(F)F)cc1)c1nn(C)c2cc(C=NNC(=S)Nc3ccccc3C(C)C)ccc12 [Example C-15] | at least 50% | at least 75% | at least 75% | at least 75% | at least 75% | at least 75%
6 | CC(C)c1ccccc1N1C(=O)CSC1=NN=Cc1ccc2c(C(=NC#N)Nc3ccc(OC(F)(F)F)cc3)nn(C)c2c1 [Example C-18] | at least 50% | at least 75% | at least 75% | at least 75% | at least 75% | 
7 | CC(C)c1ccccc1NC(=S)NN=Cc1ccc2c(C(=N)Nc3ccc(OC(F)(F)C(F)(F)F)cc3)nn(C)c2c1 [Example C-29] |  |  |  | at least 75% | at least 75% | at least 75%
8 | CON=C(c1nn(C)c2cc(C=NNC(=S)Nc3ccccc3C(C)C)ccc12)N(C)c1ccc(OC(F)(F)F)cc1 [Example C-11] | at least 50% | at least 75% | at least 75% | at least 75% | at least 75% | at least 75%
9 | CC(C)c1ccccc1NC(=S)NN=Cc1ccc2c(C(=NO)Nc3ccc(OC(F)(F)F)cc3)nn(C)c2c1 [Example C-7] | at least 50% | at least 75% | at least 75% | at least 75% | at least 75% | 
10 | CC(C)c1ccccc1N1C(=O)CSC1=NN=Cc1ccc2c(C(=N)Nc3ccc(C(F)(F)F)cn3)nn(C)c2c1 [Example C-34] | at least 50% | at least 75% | at least 75% | at least 75% | at least 75% | at least 75%
11 | CCCOC1C(OC)C(C)OC(OC(=O)Nc2ccc3c(C(=N)Nc4ccc(OC(F)(F)F)cc4)nn(C)c3c2)C1OC (centres unmarked) [Example C-10] | at least 50% | at least 75% |  | at least 75% | at least 75% | 
12 | CC(C)c1ccccc1NC(=S)NN=Cc1ccc2c(C(=NO)N(C)c3ccc(OC(F)(F)F)cc3)nn(C)c2c1 [Example C-13] | at least 50% | at least 75% | at least 75% | at least 75% | at least 75% | 
13 | CCn1nc(C(=N)Nc2ccc(OC(F)(F)F)cc2)c2ccc(C=NNC(=S)Nc3ccccc3C(C)C)cc21 [Example C-42] |  |  |  | at least 75% |  | at least 75%
14 | Cc1cccc(C)c1N1C(=O)CSC1=NN=Cc1ccc2c(C(=N)Nc3ccc(OC(F)(F)F)cc3)nn(C)c2c1 [Example C-46] | at least 50% | at least 75% | at least 75% | at least 75% |  | at least 75%
15 | CON=C(c1nn(C)c2cc(C=NN=C3SCC(=O)N3c3ccccc3C(C)C)ccc12)N(C)c1ccc(OC(F)(F)F)cc1 [Example C-12] | at least 50% | at least 75% | at least 75% | at least 75% | at least 75% | 
16 | CC(C)c1ccccc1NC(=S)NN=Cc1ccc2c(C(=NC#N)Nc3ccc(OC(F)(F)F)cc3)nn(C)c2c1 [Example C-17] | at least 50% | at least 75% | at least 75% | at least 75% | at least 75% | 
17 | CNC(=Nc1ccc(OC(F)(F)F)cc1)c1nn(C)c2cc(C=NN=C3SCC(=O)N3c3ccccc3C(C)C)ccc12 [Example C-16] | at least 50% | at least 75% | at least 75% |  | at least 75% | 
18 | CCn1nc(C(=N)Nc2ccc(OC(F)(F)F)cc2)c2ccc(C=NN=C3SCC(=O)N3c3ccccc3C(C)C)cc21 [Example C-43] |  |  |  | at least 75% |  | at least 75%
19 | CC(C)c1ccccc1N=C1SCC(=O)N1N=Cc1ccc2c(C(=N)Nc3ccc(OC(F)(F)F)cc3)nn(C)c2c1 [Example C-19] | at least 50% | at least 75% | at least 75% | at least 75% | at least 75% | at least 75%
